Assay results reported in publication PMC4117634.
These are yes or no findings as the source states them, for the method shown. In cells and extracts the contact can be indirect. Some results given as binding are weak or reduced against the parent protein; the word gives no strength.

Sequences of proteins named here, by UniProt entry; tags and fusion partners are left off.
UniProt P27986: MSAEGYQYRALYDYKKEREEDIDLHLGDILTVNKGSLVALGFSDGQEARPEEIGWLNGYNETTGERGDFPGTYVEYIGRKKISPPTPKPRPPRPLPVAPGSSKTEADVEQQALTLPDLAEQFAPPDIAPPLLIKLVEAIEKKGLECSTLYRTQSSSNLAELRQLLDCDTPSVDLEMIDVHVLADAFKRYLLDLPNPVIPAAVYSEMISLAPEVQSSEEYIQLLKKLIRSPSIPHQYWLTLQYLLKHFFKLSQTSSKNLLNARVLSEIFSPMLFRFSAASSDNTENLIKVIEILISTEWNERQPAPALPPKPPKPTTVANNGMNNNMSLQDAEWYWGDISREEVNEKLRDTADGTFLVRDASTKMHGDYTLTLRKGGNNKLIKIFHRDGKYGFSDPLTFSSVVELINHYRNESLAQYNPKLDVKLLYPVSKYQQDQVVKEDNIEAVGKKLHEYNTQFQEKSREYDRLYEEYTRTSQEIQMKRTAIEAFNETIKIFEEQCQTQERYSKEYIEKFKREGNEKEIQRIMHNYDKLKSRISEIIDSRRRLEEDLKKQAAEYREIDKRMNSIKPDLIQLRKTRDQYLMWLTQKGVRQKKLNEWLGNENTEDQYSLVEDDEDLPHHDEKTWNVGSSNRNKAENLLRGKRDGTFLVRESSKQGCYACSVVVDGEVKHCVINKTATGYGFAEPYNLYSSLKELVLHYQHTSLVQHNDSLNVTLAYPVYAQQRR
UniProt Q06187: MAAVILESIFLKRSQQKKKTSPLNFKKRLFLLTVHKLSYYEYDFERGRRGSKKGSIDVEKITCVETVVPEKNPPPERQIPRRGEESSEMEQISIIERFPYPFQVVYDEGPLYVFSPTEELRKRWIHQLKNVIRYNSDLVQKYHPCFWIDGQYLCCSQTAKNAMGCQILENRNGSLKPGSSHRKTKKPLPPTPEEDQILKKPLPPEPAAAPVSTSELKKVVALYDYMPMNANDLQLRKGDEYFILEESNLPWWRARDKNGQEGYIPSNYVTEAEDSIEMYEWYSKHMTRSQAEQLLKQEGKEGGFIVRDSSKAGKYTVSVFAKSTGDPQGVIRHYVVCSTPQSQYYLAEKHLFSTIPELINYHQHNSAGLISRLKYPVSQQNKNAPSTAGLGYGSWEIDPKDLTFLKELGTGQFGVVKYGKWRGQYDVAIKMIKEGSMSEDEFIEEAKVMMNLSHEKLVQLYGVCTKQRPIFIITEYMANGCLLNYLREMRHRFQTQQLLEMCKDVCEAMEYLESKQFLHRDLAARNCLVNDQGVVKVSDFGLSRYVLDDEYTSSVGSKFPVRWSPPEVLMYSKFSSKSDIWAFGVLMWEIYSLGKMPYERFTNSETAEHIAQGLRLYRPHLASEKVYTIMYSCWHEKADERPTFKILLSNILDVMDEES
UniProt P58753: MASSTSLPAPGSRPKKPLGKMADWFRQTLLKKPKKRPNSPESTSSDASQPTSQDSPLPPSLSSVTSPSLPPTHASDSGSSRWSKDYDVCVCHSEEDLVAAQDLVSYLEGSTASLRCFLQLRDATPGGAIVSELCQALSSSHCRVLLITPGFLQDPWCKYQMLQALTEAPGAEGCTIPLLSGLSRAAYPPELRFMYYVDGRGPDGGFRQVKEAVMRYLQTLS
UniProt Q99836: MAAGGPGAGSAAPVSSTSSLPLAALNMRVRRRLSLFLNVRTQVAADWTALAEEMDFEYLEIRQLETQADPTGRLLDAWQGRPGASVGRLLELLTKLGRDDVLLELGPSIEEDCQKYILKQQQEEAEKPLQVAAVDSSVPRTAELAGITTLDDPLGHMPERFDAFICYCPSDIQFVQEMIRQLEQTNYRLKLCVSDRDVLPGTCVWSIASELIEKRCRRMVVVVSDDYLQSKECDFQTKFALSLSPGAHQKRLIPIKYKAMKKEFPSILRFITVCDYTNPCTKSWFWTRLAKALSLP

Biological target: p85α, the regulatory subunit of PI3K (human (endogenous in THP-1)) (UniProt P27986)
Experiment: co-IP; lysates (1 mg protein) of THP-1 cells treated with MALP-2 for the indicated times; 2 µg anti-c-Src or anti-p85α antibody at 4°C for 24 h, then protein A/G beads 24 h at 4°C, washed three times with lysis buffer; immunoblot with anti-Btk, anti-Mal, anti-MyD88, anti-c-Src or anti-p85α

binding	Substance
binds	Bruton's tyrosine kinase (Btk) (from UniProt Q06187 1-659) (enzyme)
binds	MyD88 adapter-like (Mal) (from UniProt P58753 1-221)
binds	myeloid differentiation primary response 88 (MyD88) (from UniProt Q99836 1-296)
